Measured values taken from patent US12384788B2, “1,4-dihydrobenzo[d]pyrazolo[3,4-f][1,3]diazepine derivatives and related compounds as LRRK2, NUAK1 and/or TYK2 kinase modulators for the treatment of e.g. autoimmune disease” (Origenis GMBH, priority 2019, dated 2025).
Some entries share one result that the patent states for a list of compounds.

Amino acid sequences for entries named in this document (tags omitted). A change or cut given only in a name is not applied to a line headed by its entry.
UniProt Q5S007: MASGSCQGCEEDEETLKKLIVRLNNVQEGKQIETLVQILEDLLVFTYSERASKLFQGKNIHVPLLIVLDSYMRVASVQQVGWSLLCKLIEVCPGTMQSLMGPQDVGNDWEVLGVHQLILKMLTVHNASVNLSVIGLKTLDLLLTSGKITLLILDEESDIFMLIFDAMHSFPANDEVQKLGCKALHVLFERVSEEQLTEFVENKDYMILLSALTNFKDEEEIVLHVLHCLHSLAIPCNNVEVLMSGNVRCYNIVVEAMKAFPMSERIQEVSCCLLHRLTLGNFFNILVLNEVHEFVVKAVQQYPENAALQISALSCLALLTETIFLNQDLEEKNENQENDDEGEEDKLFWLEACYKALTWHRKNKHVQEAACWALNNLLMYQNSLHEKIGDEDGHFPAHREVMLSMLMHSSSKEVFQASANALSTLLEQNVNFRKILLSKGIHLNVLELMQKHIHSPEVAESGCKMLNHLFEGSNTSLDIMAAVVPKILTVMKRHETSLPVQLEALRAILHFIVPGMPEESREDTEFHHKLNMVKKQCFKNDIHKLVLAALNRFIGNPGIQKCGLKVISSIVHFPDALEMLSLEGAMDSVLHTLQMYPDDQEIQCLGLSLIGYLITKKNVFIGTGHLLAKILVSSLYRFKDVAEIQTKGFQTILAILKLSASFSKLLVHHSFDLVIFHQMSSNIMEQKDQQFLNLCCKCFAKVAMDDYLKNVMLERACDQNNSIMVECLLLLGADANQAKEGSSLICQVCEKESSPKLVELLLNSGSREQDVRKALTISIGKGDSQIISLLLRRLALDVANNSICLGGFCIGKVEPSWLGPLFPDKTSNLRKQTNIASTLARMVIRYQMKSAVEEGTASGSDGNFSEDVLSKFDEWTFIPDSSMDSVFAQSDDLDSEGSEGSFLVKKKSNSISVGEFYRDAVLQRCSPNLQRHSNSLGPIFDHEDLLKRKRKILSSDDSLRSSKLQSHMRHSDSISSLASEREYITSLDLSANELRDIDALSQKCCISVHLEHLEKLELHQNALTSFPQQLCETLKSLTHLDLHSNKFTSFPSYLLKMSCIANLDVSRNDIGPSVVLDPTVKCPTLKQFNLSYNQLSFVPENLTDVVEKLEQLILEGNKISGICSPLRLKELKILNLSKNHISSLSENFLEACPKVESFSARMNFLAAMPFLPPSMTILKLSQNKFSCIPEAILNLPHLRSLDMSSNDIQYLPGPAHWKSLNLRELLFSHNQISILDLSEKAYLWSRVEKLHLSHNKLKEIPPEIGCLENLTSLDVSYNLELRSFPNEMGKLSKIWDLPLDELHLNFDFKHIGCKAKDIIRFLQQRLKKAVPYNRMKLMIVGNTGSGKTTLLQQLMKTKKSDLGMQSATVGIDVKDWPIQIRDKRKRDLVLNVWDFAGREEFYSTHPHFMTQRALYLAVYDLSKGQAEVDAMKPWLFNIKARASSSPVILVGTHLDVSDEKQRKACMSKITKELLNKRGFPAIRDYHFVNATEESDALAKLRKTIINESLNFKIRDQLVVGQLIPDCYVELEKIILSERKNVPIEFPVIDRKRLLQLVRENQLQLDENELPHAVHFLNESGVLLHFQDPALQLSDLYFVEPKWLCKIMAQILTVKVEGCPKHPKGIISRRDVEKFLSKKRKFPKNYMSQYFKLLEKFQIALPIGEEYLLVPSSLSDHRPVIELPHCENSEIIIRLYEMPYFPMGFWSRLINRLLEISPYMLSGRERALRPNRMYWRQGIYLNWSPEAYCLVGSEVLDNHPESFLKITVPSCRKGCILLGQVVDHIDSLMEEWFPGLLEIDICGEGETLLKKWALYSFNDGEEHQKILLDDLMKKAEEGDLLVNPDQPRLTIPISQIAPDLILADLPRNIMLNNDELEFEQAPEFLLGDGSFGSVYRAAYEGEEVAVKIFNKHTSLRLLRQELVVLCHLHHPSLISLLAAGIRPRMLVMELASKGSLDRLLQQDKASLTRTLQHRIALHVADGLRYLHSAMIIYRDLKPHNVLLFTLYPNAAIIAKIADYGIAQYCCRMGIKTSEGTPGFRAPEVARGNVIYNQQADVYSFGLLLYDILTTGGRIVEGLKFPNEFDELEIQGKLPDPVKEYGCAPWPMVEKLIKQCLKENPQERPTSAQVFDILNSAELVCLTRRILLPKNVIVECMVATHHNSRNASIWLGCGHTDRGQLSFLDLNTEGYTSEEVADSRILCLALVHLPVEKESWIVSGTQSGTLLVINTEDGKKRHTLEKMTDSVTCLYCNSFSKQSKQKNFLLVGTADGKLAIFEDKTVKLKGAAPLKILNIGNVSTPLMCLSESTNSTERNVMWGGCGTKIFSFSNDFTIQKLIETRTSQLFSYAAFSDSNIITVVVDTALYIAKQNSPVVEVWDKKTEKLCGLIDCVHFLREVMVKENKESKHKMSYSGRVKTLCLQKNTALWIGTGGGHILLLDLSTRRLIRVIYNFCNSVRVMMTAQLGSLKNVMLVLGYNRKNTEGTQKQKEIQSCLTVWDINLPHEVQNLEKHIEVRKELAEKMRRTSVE

Biological target: T1, LRRK2 (Wt) and LRRK2 (G2019) (Homo sapiens, UniProt Q5S007)
T1 construct: fused on or other part: GST tag, inferred from the Eu-Anti-GST antibody used for detection
Assay: TR-FRET LanthaScreen Eu Kinase Binding Assay, LRRK2
Settings: wt human LRRK2 or G2019S human LRRK2, catalytic site; one bin printed for both; read-out: IC50, inhibitory activity toward LRRK2 (Wt) and LRRK2 (G2019)

SMILES | IC50 [nM]
CSc1n[nH]c2c1NC(c1c(F)cccc1F)=Nc1ccc(C)cc1-2 [Compound 145, 5-(2,6-difluorophenyl)-9-methyl-3-(methylthio)-1,4-dihydrobenzo[d]pyrazolo[3,4-f][1,3]diazepine] | < 10
CSc1n[nH]c2c1NC(c1c(F)cccc1F)=Nc1ccccc1-2 [Compound 146, 5-(2,6-difluorophenyl)-3-(methylthio)-1,4-dihydrobenzo[d]pyrazolo [3,4-f][1,3]diazepine] | < 10
Fc1cccc(F)c1C1=Nc2cn[nH]c2-c2cc(Cl)ncc2N1 [Compound 147, 9-chloro-5-(2,6-difluorophenyl)-1,6-dihydropyrazolo[4,3-d]pyrido[4,3-f][1,3]diazepine] | < 10
Fc1cccc(F)c1C1=Nc2cn[nH]c2-c2cc(C3=CCOCC3)ncc2N1 [Compound 149, 5-(2,6-difluorophenyl)-9-(3,6-dihydro-2H-pyran-4-yl)-1,6-dihydropyrazolo[4,3-d]pyrido[4,3-f][1,3]diazepine] | < 10
Cc1ccc2c(c1)-c1[nH]ncc1NC(c1c(Cl)cccc1Cl)=N2 [Compound 152, 5-(2,6-dichlorophenyl)-9-methyl-1,4-dihydrobenzo[d]pyrazolo[3,4-f][1,3]diazepine] | < 10
Cc1cc2c(cc1C(=O)O)NC(c1c(F)cccc1F)=Nc1cn[nH]c1-2 [Compound 156, 5-(2,6-difluorophenyl)-9-methyl-1,6-dihydrobenzo[d]pyrazolo[3,4-f][1,3]diazepine-8-carboxylic acid] | < 10
Cc1cc2c(cc1C(=O)NC1CCOCC1)N=C(c1c(F)cccc1F)Nc1cn[nH]c1-2 [Compound 157, 5-(2,6-difluorophenyl)-9-methyl-N-(tetrahydro-2H-pyran-4-yl)-1,4-dihydrobenzo[d]pyrazolo[3,4-f][1,3]diazepine-8-carboxamide] | < 10
COc1ccc2c(c1)N=C(c1c(F)cccc1Cl)Nc1cn[nH]c1-2 [Compound 158, 5-(2-chloro-6-fluorophenyl)-8-methoxy-1,4-dihydrobenzo[d]pyrazolo[3,4-f][1,3]diazepine] | < 10
Fc1cccc(F)c1C1=Nc2cc(-c3ccn[nH]3)ccc2-c2[nH]ncc2N1 [Compound 159, 5-(2,6-difluorophenyl)-8-(1H-pyrazol-5-yl)-1,4-dihydrobenzo[d]pyrazolo[3,4-f][1,3]diazepine] | < 10
Cc1ccc2c(c1)-c1[nH]ncc1NC(c1c(F)cccc1Br)=N2 [Compound 161, 5-(2-bromo-6-fluorophenyl)-9-methyl-1,4-dihydrobenzo[d]pyrazolo[3,4-f][1,3]diazepine] | < 10
CC(=O)Nc1cccc(-c2ccc3c(c2)N=C(c2c(F)cccc2F)Nc2cn[nH]c2-3)c1 [Compound 162, N-(3-(5-(2,6-difluorophenyl)-1,4-dihydrobenzo[d]pyrazolo[3,4-f][1,3]diazepin-8-yl)phenyl)acetamide] | < 10
Cc1ccc2c(c1)-c1[nH]ncc1NC(c1c(F)cccc1I)=N2 [Compound 163, 5-(2-fluoro-6-iodophenyl)-9-methyl-1,4-dihydrobenzo[d]pyrazolo[3,4-f][1,3]diazepine] | < 10
COC(=O)Nc1ccc2c(c1)N=C(c1c(F)cccc1F)Nc1c[nH]nc1-2 [Compound 164, methyl(5-(2,6-difluorophenyl)-2,4-dihydrobenzo[d]pyrazolo[3,4-f][1,3]diazepin-8-yl)carbamate] | < 10
COC(=O)Nc1ccc2c(c1)-c1[nH]ncc1NC(c1c(F)cccc1F)=N2 [Compound 165, methyl(5-(2,6-difluorophenyl)-1,4-dihydrobenzo[d]pyrazolo[3,4-f][1,3]diazepin-9-yl)carbamate] | < 10
Cc1cc(F)c2c(c1)-c1[nH]nc(Cl)c1NC(c1c(F)cccc1F)=N2 [Compound 166, 3-chloro-5-(2,6-difluorophenyl)-7-fluoro-9-methyl-1,4-dihydrobenzo[d]pyrazolo[3,4-f][1,3]diazepine] | < 10
